# Some of the results follow.
# Protein sequences, listed by entry. Tags and fused reporters are not part of them. Lines headed by an entry give the natural chain unless they say otherwise; changes in a name come on top.
# UniProt Q6GMV3: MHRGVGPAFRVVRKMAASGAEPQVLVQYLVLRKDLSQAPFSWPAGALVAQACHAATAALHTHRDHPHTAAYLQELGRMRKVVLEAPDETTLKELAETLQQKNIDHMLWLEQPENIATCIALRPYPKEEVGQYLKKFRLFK
# UniProt O95997: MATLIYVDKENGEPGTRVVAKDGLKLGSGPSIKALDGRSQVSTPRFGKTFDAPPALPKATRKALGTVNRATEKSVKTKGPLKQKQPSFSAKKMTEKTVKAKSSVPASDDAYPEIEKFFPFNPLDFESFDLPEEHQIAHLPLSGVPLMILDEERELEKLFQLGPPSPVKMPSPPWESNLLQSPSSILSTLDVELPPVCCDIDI
# UniProt P51665: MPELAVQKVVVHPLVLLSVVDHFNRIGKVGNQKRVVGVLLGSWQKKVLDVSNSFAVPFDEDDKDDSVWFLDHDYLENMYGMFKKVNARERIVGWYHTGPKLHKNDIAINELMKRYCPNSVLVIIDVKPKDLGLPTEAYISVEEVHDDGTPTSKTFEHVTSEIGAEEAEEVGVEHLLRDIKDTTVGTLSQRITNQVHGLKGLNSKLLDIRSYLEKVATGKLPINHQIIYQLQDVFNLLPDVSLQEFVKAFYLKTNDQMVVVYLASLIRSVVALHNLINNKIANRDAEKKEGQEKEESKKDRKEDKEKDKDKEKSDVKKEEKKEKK
# UniProt O00487, whole entry, looked up: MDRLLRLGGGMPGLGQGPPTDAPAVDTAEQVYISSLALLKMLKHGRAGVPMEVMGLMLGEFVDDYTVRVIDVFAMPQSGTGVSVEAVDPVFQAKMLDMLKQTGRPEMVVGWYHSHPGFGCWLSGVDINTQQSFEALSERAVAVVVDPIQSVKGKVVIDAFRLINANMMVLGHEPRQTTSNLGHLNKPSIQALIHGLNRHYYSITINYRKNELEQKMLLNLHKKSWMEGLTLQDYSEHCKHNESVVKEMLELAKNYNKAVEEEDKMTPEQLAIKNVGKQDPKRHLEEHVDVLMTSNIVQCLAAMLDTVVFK
# UniProt O00233: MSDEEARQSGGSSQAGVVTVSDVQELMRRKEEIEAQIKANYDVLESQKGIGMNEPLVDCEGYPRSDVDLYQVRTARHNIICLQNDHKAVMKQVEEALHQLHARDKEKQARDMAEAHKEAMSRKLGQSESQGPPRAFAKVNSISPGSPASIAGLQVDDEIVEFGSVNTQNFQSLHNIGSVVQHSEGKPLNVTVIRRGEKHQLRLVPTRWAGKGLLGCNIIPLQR
# UniProt P28074: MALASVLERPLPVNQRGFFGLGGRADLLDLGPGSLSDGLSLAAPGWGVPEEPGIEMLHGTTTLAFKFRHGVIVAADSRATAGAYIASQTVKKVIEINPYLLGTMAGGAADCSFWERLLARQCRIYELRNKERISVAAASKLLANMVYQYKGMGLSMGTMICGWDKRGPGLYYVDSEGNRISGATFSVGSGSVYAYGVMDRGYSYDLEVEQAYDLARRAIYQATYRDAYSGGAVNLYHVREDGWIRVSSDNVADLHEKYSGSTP
# UniProt Q05397, whole entry, looked up: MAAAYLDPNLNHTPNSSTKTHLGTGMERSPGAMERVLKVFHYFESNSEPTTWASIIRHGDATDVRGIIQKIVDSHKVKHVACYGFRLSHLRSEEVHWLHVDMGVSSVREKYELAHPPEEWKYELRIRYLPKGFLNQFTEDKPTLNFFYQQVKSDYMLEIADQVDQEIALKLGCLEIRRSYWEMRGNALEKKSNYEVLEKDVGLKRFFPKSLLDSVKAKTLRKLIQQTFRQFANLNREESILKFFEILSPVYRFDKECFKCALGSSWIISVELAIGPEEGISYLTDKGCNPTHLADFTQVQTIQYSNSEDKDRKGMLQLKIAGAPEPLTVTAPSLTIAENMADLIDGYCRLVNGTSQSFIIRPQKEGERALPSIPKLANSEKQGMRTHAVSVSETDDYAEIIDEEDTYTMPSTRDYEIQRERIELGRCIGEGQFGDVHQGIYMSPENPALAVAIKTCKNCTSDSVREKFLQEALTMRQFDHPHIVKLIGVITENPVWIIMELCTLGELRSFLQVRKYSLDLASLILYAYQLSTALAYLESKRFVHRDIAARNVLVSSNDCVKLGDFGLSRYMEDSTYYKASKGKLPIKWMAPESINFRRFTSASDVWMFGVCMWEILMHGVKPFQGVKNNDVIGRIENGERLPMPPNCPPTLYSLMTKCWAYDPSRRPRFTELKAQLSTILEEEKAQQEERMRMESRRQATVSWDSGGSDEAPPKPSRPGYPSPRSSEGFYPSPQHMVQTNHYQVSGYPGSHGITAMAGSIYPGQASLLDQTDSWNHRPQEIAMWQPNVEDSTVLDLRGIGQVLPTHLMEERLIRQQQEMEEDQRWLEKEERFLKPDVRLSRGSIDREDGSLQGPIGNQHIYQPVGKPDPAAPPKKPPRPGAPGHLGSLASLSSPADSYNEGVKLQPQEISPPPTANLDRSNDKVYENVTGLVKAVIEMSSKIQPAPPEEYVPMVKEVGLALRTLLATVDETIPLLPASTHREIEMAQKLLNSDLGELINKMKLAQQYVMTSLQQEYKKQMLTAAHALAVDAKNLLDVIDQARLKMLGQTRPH
# UniProt Q8N8N7: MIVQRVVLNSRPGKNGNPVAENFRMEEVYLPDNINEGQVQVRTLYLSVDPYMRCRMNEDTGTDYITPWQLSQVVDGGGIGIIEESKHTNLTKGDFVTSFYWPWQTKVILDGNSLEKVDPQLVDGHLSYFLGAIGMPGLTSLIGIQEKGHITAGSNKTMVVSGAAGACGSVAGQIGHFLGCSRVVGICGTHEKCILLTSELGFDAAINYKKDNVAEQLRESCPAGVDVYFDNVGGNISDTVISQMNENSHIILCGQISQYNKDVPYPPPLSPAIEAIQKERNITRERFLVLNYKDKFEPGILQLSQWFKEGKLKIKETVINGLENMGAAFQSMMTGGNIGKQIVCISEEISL
# UniProt P48634: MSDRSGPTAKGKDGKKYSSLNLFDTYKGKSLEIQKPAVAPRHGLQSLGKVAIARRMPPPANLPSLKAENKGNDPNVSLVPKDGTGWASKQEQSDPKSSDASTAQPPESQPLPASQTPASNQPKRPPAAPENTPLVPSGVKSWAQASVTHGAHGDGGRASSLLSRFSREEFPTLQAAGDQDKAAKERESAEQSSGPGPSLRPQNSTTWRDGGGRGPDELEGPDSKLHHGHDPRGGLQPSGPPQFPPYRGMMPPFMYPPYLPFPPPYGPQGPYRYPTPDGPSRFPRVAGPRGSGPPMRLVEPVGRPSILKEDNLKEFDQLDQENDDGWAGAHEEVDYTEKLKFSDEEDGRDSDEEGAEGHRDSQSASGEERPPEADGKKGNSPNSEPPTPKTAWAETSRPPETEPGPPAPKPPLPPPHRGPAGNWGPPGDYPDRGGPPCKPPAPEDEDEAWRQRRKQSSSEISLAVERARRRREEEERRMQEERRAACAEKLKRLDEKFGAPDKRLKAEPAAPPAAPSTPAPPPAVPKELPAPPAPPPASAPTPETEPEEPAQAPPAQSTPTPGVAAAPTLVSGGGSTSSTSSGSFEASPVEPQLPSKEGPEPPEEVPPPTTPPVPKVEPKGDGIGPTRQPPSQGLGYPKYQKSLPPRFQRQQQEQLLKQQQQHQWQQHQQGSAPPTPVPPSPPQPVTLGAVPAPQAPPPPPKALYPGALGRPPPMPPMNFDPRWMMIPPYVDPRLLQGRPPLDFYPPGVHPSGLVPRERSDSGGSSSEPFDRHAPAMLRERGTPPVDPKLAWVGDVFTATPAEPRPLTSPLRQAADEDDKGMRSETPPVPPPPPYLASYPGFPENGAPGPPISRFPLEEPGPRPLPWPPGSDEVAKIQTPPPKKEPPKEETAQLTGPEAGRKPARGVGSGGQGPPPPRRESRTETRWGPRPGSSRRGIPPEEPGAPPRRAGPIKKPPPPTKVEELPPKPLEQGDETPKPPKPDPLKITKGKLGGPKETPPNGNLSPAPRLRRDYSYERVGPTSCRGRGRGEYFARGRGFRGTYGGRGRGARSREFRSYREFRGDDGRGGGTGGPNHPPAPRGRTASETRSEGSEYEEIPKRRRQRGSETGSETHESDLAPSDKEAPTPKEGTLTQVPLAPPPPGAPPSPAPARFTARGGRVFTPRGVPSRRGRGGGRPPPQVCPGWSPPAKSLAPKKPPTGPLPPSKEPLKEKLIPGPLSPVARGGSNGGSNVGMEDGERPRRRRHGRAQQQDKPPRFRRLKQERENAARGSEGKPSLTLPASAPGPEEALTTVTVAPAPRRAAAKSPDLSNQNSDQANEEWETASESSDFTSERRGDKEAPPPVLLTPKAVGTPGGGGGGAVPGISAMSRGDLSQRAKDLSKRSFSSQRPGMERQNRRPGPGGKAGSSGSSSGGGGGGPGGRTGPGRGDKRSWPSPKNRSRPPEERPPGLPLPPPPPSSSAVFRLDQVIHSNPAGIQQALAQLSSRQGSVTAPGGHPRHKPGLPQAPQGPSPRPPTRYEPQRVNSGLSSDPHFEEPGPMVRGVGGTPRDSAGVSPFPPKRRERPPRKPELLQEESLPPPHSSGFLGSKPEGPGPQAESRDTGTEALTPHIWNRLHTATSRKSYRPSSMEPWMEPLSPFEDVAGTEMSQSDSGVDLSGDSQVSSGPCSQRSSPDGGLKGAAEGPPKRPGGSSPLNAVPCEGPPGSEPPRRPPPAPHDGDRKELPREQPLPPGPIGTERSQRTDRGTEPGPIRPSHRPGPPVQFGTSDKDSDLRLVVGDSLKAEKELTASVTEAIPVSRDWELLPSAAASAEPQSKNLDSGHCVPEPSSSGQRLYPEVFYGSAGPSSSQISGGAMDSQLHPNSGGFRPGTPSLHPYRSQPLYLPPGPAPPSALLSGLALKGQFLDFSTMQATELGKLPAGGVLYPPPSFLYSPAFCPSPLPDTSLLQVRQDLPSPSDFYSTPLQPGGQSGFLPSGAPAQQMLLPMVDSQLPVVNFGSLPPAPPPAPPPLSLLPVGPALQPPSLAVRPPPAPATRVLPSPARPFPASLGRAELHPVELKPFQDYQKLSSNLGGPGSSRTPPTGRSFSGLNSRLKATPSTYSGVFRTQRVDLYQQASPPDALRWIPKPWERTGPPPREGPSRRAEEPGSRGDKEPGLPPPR
# UniProt Q9UHX1: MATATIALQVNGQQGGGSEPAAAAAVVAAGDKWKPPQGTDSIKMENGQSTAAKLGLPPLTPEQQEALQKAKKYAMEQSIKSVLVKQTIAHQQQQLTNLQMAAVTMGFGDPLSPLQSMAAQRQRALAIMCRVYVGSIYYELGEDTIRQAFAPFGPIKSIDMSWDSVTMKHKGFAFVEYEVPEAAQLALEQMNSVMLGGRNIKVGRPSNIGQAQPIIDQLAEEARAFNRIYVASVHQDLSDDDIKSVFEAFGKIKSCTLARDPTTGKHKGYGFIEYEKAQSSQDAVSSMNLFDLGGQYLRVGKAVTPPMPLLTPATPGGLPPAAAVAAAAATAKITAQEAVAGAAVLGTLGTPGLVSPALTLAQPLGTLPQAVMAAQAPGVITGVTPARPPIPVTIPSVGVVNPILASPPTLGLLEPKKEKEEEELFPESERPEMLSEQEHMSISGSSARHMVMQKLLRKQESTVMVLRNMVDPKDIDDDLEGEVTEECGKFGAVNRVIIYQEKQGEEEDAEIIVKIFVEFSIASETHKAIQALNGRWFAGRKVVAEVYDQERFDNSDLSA
# UniProt O95456: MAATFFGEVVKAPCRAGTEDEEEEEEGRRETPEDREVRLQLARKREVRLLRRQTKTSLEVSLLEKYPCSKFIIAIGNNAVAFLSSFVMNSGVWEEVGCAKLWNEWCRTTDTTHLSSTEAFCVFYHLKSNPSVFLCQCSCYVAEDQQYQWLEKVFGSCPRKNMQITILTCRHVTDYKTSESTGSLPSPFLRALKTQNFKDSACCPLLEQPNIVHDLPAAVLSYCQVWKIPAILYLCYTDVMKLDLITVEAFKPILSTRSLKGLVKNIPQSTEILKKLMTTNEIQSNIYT
# UniProt Q15257: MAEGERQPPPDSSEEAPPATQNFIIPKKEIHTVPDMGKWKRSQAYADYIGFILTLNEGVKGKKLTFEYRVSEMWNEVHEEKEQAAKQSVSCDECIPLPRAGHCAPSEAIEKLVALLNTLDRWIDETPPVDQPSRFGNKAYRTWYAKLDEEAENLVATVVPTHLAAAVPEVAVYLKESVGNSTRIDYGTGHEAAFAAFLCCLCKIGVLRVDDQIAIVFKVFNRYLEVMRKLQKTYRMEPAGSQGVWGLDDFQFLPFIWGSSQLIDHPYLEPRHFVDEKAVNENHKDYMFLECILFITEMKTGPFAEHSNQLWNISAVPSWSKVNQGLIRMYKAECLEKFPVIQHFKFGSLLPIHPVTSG
# UniProt Q969U7: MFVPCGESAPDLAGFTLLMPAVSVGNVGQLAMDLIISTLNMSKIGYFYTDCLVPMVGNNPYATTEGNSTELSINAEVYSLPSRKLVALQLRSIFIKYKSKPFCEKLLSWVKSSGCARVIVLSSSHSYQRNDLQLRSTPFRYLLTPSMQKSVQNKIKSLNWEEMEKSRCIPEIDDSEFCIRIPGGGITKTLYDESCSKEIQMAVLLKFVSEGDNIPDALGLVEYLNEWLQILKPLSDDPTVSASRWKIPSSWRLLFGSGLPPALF
# Tests used:
# Assay in all cases: log2 fold change, soluble protein after heating vs DMSO (PISA); higher = thermal stabilisation; K562 lysate, 10 uM; active = over 0.2 and 3.5 SD of the protein, either way, in both replicates (recomputed)
# nilotinib = compound: Cc1cn(-c2cc(NC(=O)c3ccc(C)c(Nc4nccc(-c5cccnc5)n4)c3)cc(C(F)(F)F)c2)cn1 [nilotinib]
# How it was run: (§1)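 Pellets of K562 cells were dounce-homogenised in PBS pH 7.4 with 1 mM MgCl2, and the crude extract was held at 1 mg/mL protein for a 30 min treatment with 10 μM compound. Aliquots were heated for 3 min over 48°C-58°C and pooled before NP-40 was added to 0.5% at 4°C. The supernatant from 21,000xg for 90 min was quantified by TMTpro 16plex LC-MS/MS with channel sums equalised. Values are reported from duplicates as log-two fold change in thermal stability relative to solvent controls.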
# [1] = compound: Cc1nc(Nc2n[nH]c3c2CN(C(=O)N[C@H](CN(C)C)c2ccccc2)C3(C)C)c2sccc2n1
# How it was run: as §1
# dasatinib = compound: Cc1nc(Nc2ncc(C(=O)Nc3c(C)cccc3Cl)s2)cc(N2CCN(CCO)CC2)n1 [dasatinib]
# How it was run: as §1
# [2] = compound: Cc1ncc(-c2ccnc(Nc3ccc(S(C)(=O)=O)cc3)n2)n1C(C)C
# How it was run: as §1
# [3] = compound: Cn1cc(-c2ccc3c(c2)CCN3C(=O)Cc2cccc(C(F)(F)F)c2)c2c(N)ncnc21
# How it was run: as §1
# quisinostat = compound: Cn1cc(CNCC2CCN(c3ncc(C(=O)NO)cn3)CC2)c2ccccc21 [quisinostat]
# How it was run: as §1
# tipifarnib = compound: Cn1cncc1[C@@](N)(c1ccc(Cl)cc1)c1ccc2c(c1)c(-c1cccc(Cl)c1)cc(=O)n2C [tipifarnib]
# How it was run: as §1
# [4] = compound: NC(=O)Nc1cc(-c2cccc(F)c2)sc1C(=O)N[C@H]1CCCNC1
# How it was run: as §1
# [5] = compound: NC(=O)c1cnc(N[C@@H]2CCCC[C@@H]2N)nc1Nc1cccc(-n2nccn2)c1
# How it was run: as §1
# [6] = compound: NC1(c2ccc(-c3nc4ccn5c(=O)[nH]nc5c4cc3-c3ccccc3)cc2)CCC1
# How it was run: as §1
# [7] = compound: NCC(=O)Nc1ccc(-n2nc(C(F)(F)F)cc2-c2ccc3c(ccc4ccccc43)c2)cc1
# How it was run: as §1
# vorinostat = compound: O=C(CCCCCCC(=O)Nc1ccccc1)NO [vorinostat]
# How it was run: as §1
# silmitasertib = compound: O=C(O)c1ccc2c(c1)nc(Nc1cccc(Cl)c1)c1ccncc12 [silmitasertib]
# How it was run: as §1
# [8] = compound: O=C1NC(=O)C(c2cnc3ccccn23)=C1c1cn2c3c(cc(F)cc13)CN(C(=O)N1CCCCC1)CC2
# How it was run: as §1
# entospletinib = compound: c1cn2cc(-c3ccc4cn[nH]c4c3)nc(Nc3ccc(N4CCOCC4)cc3)c2n1 [entospletinib]
# How it was run: as §1
Target,log2 fold change (nilotinib),log2 fold change [1],log2 fold change (dasatinib),log2 fold change [2],log2 fold change [3],log2 fold change (quisinostat),log2 fold change (tipifarnib),log2 fold change [4],log2 fold change [5],log2 fold change [6],log2 fold change [7],log2 fold change (vorinostat),log2 fold change (silmitasertib),log2 fold change [8],log2 fold change (entospletinib)
PTRHD1 (UniProt Q6GMV3),inactive: 0.049,inactive: 0.028,inactive: 0.03,inactive: 0.176,inactive: 0.026,inactive: 0.01,inactive: -0.01,inactive: -0.09,inactive: -0.009,inactive: -0.027,inactive: 0.042,inactive: 0.227,inactive: 0.022,inactive: 0.091,inactive: -0.115
PSMC5 (UniProt P62195),inactive: -0.004,inactive: 0,inactive: -0.01,inactive: 0.001,inactive: 0.007,inactive: -0.02,inactive: 0.018,inactive: 0.014,inactive: -0.01,inactive: -0.006,inactive: -0.001,inactive: -0.001,inactive: 0.034,inactive: 0.021,inactive: 0.003
PTTG1 (UniProt O95997),inactive: 0.073,inactive: 0.05,inactive: -0.017,inactive: -0.017,inactive: 0.009,inactive: -0.074,inactive: 0.019,inactive: 0.019,inactive: 0.025,inactive: -0.032,inactive: 0.06,inactive: 0.061,inactive: 0.014,inactive: -0.004,inactive: 0.006
PSMD7 (UniProt P51665),inactive: 0.015,inactive: 0.029,inactive: -0.012,inactive: 0.017,inactive: -0.004,inactive: -0.025,inactive: -0.011,inactive: 0.048,inactive: 0.006,inactive: -0.019,inactive: 0.003,inactive: 0.026,inactive: 0.004,inactive: 0.006,inactive: -0.008
PTPRA (UniProt P18433),inactive: -0.016,inactive: 0.029,inactive: -0.039,inactive: -0.012,inactive: 0.04,inactive: -0.005,inactive: 0,inactive: 0.03,inactive: -0.009,inactive: -0.001,inactive: -0.015,inactive: -0.056,inactive: 0.024,inactive: -0.072,inactive: 0.026
PSMD14 (UniProt O00487),inactive: -0.025,inactive: 0.022,inactive: -0.005,inactive: -0.006,inactive: 0.008,inactive: 0.025,inactive: 0.051,inactive: 0.012,inactive: 0.021,inactive: 0.021,inactive: 0,inactive: -0.03,inactive: -0.012,inactive: -0.018,inactive: 0.007
PSMD13 (UniProt Q9UNM6),inactive: 0.001,inactive: 0,inactive: -0.036,inactive: -0.005,inactive: 0.022,inactive: 0,inactive: -0.001,inactive: -0.012,inactive: 0.001,inactive: 0.024,inactive: -0.046,inactive: -0.034,inactive: 0.017,inactive: -0.024,inactive: 0
PSMD9 (UniProt O00233),inactive: -0.018,inactive: -0.048,inactive: 0.022,inactive: -0.023,inactive: -0.025,inactive: -0.091,inactive: -0.006,inactive: -0.01,inactive: -0.005,inactive: -0.045,inactive: 0.011,inactive: -0.019,inactive: -0.007,inactive: -0.012,inactive: 0.025
PSMB5 (UniProt P28074),inactive: 0.084,inactive: -0.009,inactive: 0.053,inactive: 0,inactive: -0.018,inactive: 0.021,inactive: 0.005,inactive: 0.006,inactive: -0.017,inactive: 0.022,inactive: -0.009,inactive: 0.14,inactive: -0.031,inactive: 0.008,inactive: 0.028
PTK2 (UniProt Q05397),inactive: -0.032,inactive: 0.235,inactive: 0.083,inactive: 0.078,inactive: 0.18,inactive: -0.038,inactive: -0.046,inactive: 0.373,inactive: 0.081,inactive: 0.021,inactive: -0.017,inactive: -0.137,inactive: 0,inactive: -0.056,inactive: 0.175
PTGFRN (UniProt Q9P2B2),inactive: 0.012,inactive: -0.005,inactive: 0.016,inactive: 0.001,inactive: -0.036,inactive: -0.033,inactive: 0.014,inactive: -0.001,inactive: -0.01,inactive: 0.001,inactive: -0.008,inactive: 0.078,inactive: 0,inactive: -0.029,inactive: -0.008
PWP2 (UniProt Q15269),inactive: 0.016,inactive: -0.006,inactive: -0.033,inactive: -0.032,inactive: -0.023,inactive: -0.056,inactive: 0.004,inactive: 0.036,inactive: -0.022,inactive: 0.011,inactive: 0.007,active: -0.547,inactive: 0.029,inactive: -0.014,inactive: 0.019
PTGR2 (UniProt Q8N8N7),inactive: 0.024,inactive: -0.044,inactive: 0.012,inactive: 0.025,inactive: 0.024,inactive: -0.008,inactive: 0.034,inactive: -0.011,inactive: -0.002,inactive: 0.011,inactive: -0.083,active: 0.656,inactive: -0.002,inactive: 0.11,inactive: -0.005
PRRC2A (UniProt P48634),inactive: -0.044,inactive: 0.01,inactive: 0.004,inactive: 0.002,inactive: -0.003,inactive: 0.015,inactive: -0.036,inactive: 0.059,inactive: -0.011,inactive: 0.02,inactive: 0.012,inactive: 0.108,inactive: -0.026,inactive: -0.018,inactive: -0.003
PSMD8 (UniProt P48556),inactive: 0.003,inactive: -0.019,inactive: -0.061,inactive: -0.005,inactive: 0.017,inactive: 0.024,inactive: 0.008,inactive: -0.016,inactive: 0.009,inactive: 0.035,inactive: -0.025,inactive: -0.028,inactive: 0.052,inactive: -0.01,inactive: -0.021
PUF60 (UniProt Q9UHX1),inactive: -0.006,inactive: -0.002,inactive: -0.025,inactive: 0.011,inactive: -0.017,inactive: 0.073,inactive: 0.016,inactive: -0.017,inactive: -0.001,inactive: 0.021,inactive: -0.007,inactive: 0.15,inactive: -0.029,inactive: 0.002,inactive: 0.002
PSME3 isoform 2 (UniProt P61289),inactive: -0.021,inactive: 0.017,inactive: 0.017,inactive: -0.018,inactive: 0.004,inactive: 0.034,inactive: 0.024,inactive: 0.005,inactive: 0.008,inactive: 0.033,inactive: -0.011,inactive: 0.068,inactive: -0.004,inactive: -0.007,inactive: -0.017
PSMG1 (UniProt O95456),inactive: -0.004,inactive: 0.019,inactive: -0.004,inactive: -0.021,inactive: 0.025,inactive: 0.045,inactive: -0.013,inactive: -0.016,inactive: 0.002,inactive: 0.019,inactive: -0.003,inactive: 0.049,inactive: 0.038,inactive: -0.004,inactive: -0.011
PTPN11 isoform 1 (UniProt Q06124),inactive: -0.052,inactive: 0.012,inactive: 0.026,inactive: -0.008,inactive: 0.02,inactive: 0.045,inactive: 0.024,inactive: -0.021,inactive: 0.004,inactive: 0.017,inactive: 0,inactive: -0.003,inactive: -0.011,inactive: -0.019,inactive: 0.009
PTPA isoform 2 (UniProt Q15257),inactive: 0.011,inactive: -0.009,inactive: 0.013,inactive: 0.04,inactive: 0.001,inactive: 0.038,inactive: 0.012,inactive: -0.004,inactive: -0.015,inactive: -0.003,inactive: 0.032,inactive: 0.151,inactive: 0.007,inactive: -0.027,inactive: 0.008
PSMG2 (UniProt Q969U7),inactive: 0.015,inactive: -0.055,inactive: -0.005,inactive: -0.008,inactive: -0.003,inactive: 0.004,inactive: 0.027,inactive: -0.014,inactive: -0.013,inactive: 0.018,inactive: 0.014,inactive: 0.105,inactive: 0.018,inactive: -0.015,inactive: 0.018

# Complete entries, quoted from the list. Order of values: log2 fold change (nilotinib)	log2 fold change [1]	log2 fold change (dasatinib)	log2 fold change [2]	log2 fold change [3]	log2 fold change (quisinostat)	log2 fold change (tipifarnib)	log2 fold change [4]	log2 fold change [5]	log2 fold change [6]	log2 fold change [7]	log2 fold change (vorinostat)	log2 fold change (silmitasertib)	log2 fold change [8]	log2 fold change (entospletinib)
# PTK2 (UniProt Q05397) in the list: inactive: -0.032	inactive: 0.235	inactive: 0.083	inactive: 0.078	inactive: 0.18	inactive: -0.038	inactive: -0.046	inactive: 0.373	inactive: 0.081	inactive: 0.021	inactive: -0.017	inactive: -0.137	inactive: 0	inactive: -0.056	inactive: 0.175
# PSMD9 (UniProt O00233) in the list: inactive: -0.018	inactive: -0.048	inactive: 0.022	inactive: -0.023	inactive: -0.025	inactive: -0.091	inactive: -0.006	inactive: -0.01	inactive: -0.005	inactive: -0.045	inactive: 0.011	inactive: -0.019	inactive: -0.007	inactive: -0.012	inactive: 0.025

# — the supplement of paper PMC10849652
